Reference: PubChem BioAssay (Tox21)
Values joined by “and” are separate entries in the source; they are usually repeats but may differ in a detail not shown here. Equal entries are not always repeated. Inconclusive results, whose numbers are uncertain, are shown with a selection of clear calls. Where the call is inconclusive, the potency comes from a doubtful curve fit. More than one record can exist for a structure, and the calls need not agree. Active and inactive are the calls of the source. Unless noted, the call rests on the fitted dose curve; in most records, active means well fitted inhibition curve with a large enough effect in the repeat runs; inconclusive means weak or mixed curves; inactive means no such curve, though single readings can be large or run the other way.

Protein sequences, listed by entry. Tags and fused reporters are not part of them. Lines headed by an entry give the natural chain unless they say otherwise; changes in a name come on top.
UniProt P10635, whole entry, looked up: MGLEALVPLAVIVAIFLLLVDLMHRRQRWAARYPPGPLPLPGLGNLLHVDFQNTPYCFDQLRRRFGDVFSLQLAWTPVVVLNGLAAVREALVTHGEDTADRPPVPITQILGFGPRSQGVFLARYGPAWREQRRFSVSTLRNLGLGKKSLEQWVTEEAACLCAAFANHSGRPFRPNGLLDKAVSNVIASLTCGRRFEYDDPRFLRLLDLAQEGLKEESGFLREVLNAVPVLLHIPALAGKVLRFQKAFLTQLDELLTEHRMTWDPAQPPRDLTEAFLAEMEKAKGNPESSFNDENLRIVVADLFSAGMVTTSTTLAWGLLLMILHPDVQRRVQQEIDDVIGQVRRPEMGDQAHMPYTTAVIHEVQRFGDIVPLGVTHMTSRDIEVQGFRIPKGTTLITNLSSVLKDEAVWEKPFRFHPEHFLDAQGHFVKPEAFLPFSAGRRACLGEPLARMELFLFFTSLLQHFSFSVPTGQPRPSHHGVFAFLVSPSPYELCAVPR
UniProt P22303: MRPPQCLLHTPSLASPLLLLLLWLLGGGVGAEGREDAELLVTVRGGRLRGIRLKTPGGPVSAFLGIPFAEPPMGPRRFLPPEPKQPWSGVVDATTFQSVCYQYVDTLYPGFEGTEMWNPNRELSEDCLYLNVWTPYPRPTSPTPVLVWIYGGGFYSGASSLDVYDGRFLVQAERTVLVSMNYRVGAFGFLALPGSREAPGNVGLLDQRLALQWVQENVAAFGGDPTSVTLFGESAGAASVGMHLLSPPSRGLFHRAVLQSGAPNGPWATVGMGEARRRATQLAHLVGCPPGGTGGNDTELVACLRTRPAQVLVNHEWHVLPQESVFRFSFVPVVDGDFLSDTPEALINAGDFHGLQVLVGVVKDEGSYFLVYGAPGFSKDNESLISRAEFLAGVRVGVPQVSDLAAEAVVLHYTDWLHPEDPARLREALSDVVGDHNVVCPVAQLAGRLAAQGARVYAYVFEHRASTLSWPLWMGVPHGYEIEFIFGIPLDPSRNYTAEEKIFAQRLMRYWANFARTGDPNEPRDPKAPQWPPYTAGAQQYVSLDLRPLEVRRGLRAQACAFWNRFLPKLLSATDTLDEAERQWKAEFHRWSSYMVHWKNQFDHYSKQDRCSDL
UniProt P33261, whole entry, looked up: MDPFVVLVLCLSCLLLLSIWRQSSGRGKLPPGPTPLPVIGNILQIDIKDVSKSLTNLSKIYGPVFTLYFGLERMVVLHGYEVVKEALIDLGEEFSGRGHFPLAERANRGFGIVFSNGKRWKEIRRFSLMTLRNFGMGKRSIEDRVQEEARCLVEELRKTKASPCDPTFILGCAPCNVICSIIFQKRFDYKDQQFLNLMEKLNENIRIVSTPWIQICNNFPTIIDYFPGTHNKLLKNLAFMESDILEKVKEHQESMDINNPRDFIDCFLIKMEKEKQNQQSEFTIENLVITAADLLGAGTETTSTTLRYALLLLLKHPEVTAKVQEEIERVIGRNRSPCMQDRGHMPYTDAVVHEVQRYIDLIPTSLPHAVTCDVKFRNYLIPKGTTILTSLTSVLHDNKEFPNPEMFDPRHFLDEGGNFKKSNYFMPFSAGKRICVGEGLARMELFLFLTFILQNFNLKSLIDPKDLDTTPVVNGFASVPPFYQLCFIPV

How the values were obtained:
[1] = molecular target: Cytochrome P450 2D6 (Homo sapiens) (UniProt P10635); test: Cytochrome P450 Family 2 Subfamily D Member 6 (CYP2D6) small molecule antagonists: luciferase reporter qHTS assay (AID 1671196); further: nearly all actives have a fitted effect of over 50% in size
Method in brief: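 Cell-free P450-Glo system: CYP2D6 with proluciferin substrate was pre-incubated with compound for 10 min, then reacted with NADPH regeneration for 1 h at room temperature. Luciferin product was detected after 20 min, and data were reported as relative luminescence units.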

[2] = molecular target: Acetylcholinesterase (Homo sapiens) (UniProt P22303); test: Acetylcholinesterase (AChE) small molecule antagonists: enzyme-based qHTS assay (AID 1347397; calls by dose curve; further: nearly all actives have a fitted effect of over 55% in size); conditions: Potency: AChE enzyme activity inhibition
Method in brief: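 Absorbance-based detection of thiocholine with DTNB served as the read-out. Recombinant human AChE was exposed to compound for 30 min at RT before a 10 min RT incubation with acetylthiocholine.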

[3] = molecular target: Acetylcholinesterase (Homo sapiens) (UniProt P22303); test: Acetylcholinesterase (AChE) small molecule antagonists: fluorescence cell-based qHTS assay (AID 1347398; calls by dose curve; further: nearly all actives have a fitted effect of over 50% in size); conditions: Potency: AChE activity
Method in brief: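 Fluorimetric cell-based assay: intact SH-SY5Y cells, 30 min compound preincubation at 37 C, acetylthiocholine substrate with thiol probe Thiolite Green, 40 min RT development, fluorescence 490/520 nm.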

[4] = molecular target: Cytochrome P450 2C19 (Homo sapiens) (UniProt P33261); test: Cytochrome P450 Family 2 Subfamily C Member 19 (CYP2C19) small molecule antagonists: luciferase reporter qHTS assay (AID 1671197); further: nearly all actives have a fitted effect of over 65% in size
Method in brief: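 P450-Glo CYP2C19 screening system; proluciferin substrate; DMSO compound stocks; 10 min RT preincubation; NADPH regeneration, 1 h at 37C; luciferin detection reagent, 20 min RT; luminescence as RLU.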
Potency means the concentration at half of the fitted maximal effect.

## C[C@]12CC[C@H]3[C@@H](CCC4=CC(=O)CC[C@@]43C)[C@@H]1CC[C@@H]2O
[1]
  Potency: inactive

## Cc1ccccc1
[1]
  Potency: inactive

## NCc1cccnc1
[1]
  Potency: inconclusive: 28.3 µM [inhibitor, partial curve, poor fit]

## CC(C)(C)OOC(C)(C)C
[1]
  Potency: inconclusive: 62 µM [inhibitor, partial curve, poor fit] and inactive

## BrCc1ccc(Br)cc1
[2]
  Potency: inconclusive: 89.4 µM [falling, single point]
[3]
  Potency: inconclusive: 89.4 µM [inhibitor, single point]
[1]
  Potency: inconclusive: 71 µM [inhibitor, partial curve]
[4]
  Potency: inconclusive: 22.4 µM [inhibitor, partial curve, poor fit]

## COc1cc(CC(C)N)cc(OC)c1OC (stereo not drawn)
[1]
  Potency: inconclusive: 43.2 µM [inhibitor, partial curve]

## CCC(Cl)[N+](=O)[O-] (stereo not drawn)
[1]
  Potency: inconclusive: 65.6 µM [inhibitor, partial curve]

## Nc1ccccc1C(=O)O
[1]
  Potency: active: 63.6 µM

## O=C(O)C(F)(F)C(F)(F)C(F)(F)C(F)(F)C(F)(F)C(F)(F)C(F)(F)C(F)(F)C(F)(F)C(F)(F)F
[3]
  Potency: inactive

## CCOP(=S)(OCC)OP(=S)(OCC)OCC
[2]
  Potency: active: 72.9 µM and active: 79.6 µM
